Measured values: article PMC7819943, “Rice protein-binding microarrays: a tool to detect cis-acting elements near promoter regions in rice”
Some of the results follow.

The sequences below were run against T1, OsSMF1 (Oryza sativa, UniProt Q6ZLB0 1-436) (assay: protein-binding microarray (RPBM); PBS, 2% BSA, 51.3 ng/ul salmon testes DNA, 50 uM zinc acetate, 200 nM TF, 25 C, 1 h; high values mean tight binding). Conditions: protein: recombinant; tags: N-terminal polyhistidine and DsRed monomer fusion (pET32a); chain copies: 2; label: CyDye5-dUTP incorporated in the synthesized complementary strand; 3' TTTTT single-stranded linker to array surface; dsDNA, one strand shown.
T1 sequence: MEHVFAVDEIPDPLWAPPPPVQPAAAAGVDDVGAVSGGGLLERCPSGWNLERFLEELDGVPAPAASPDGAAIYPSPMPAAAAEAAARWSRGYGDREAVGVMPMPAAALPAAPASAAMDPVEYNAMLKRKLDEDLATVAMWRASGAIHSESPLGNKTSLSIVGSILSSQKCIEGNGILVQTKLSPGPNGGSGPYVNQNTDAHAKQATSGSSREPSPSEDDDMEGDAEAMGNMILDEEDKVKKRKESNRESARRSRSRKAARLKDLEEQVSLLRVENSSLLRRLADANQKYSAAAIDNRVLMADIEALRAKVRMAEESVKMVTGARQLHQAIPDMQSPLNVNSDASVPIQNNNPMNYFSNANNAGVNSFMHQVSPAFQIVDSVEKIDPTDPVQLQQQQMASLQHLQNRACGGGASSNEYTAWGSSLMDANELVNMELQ
Method in brief: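 Using Ni–NTA, transcription factors fused N-terminally to polyhistidine and DsRed were purified after expression in E. coli BL21-CodonPlus. These were incubated at 200 nM with a blocked, double-stranded custom Agilent array for 1 h at 25 °C in a buffer containing 50 µM zinc acetate, and the array was washed. The binding signal is per-feature fluorescence intensity (arbitrary units) on an Axon 4000B scanner.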

Sequence	binding signal
ATGGAAATGGCCACCATCATCACCAACTACTTTTATGGAACGGAGTCACCTAGTGCAG	3320 fluorescence intensity (a.u.)
CTACCTACCAATGGACCTACTCGTTAGGTACCGTAGCCGACGGAGTCACCTAGTGCAG	3640 fluorescence intensity (a.u.)
CTCACGCCACCGAGTCGCGCCGACGTCATCATTGTGCCGTCGGAGTCACCTAGTGCAG	10300 fluorescence intensity (a.u.)
AGGCGGAGGCGACGCCGCCGCGGACGACGTGGACGTCGACCGGAGTCACCTAGTGCAG	6790 fluorescence intensity (a.u.)
ACTTATGTTGGGTTTCATTTATTCTCGGTCGAATCATGCTCGGAGTCACCTAGTGCAG	3360 fluorescence intensity (a.u.)
GATTCTACCGAGAGCGAGCTGTAATAATAACTTCTACCCGCGGAGTCACCTAGTGCAG	30200 fluorescence intensity (a.u.)
AGGCATGCGTGCGATGTACCGAAATGTGTCGCCACTGCTGCGGAGTCACCTAGTGCAG	30400 fluorescence intensity (a.u.)
GATTAACATGTTAAATGTATATGAGACTGTTTAGTAGAATCGGAGTCACCTAGTGCAG	4220 fluorescence intensity (a.u.)
GAATGCATGTCCCAGTCATACTAATCGACTCACTTTCACACGGAGTCACCTAGTGCAG	6240 fluorescence intensity (a.u.)
TGGATTTTGCACCGATCGCACCACGTCTCCGTCTGTTTGCCGGAGTCACCTAGTGCAG	4240 fluorescence intensity (a.u.)
CCACTCGTCGCCCTCGGCCATGACGCGGCCTCTCCCGAACCGGAGTCACCTAGTGCAG	4540 fluorescence intensity (a.u.)
ATTTCGGGACGGAGGGTGTACCATCTAAATGAGCTGGCAACGGAGTCACCTAGTGCAG	4870 fluorescence intensity (a.u.)
GTAGCGATGCTTCGCGTGGTGCTGACGTCATCGGATCCGACGGAGTCACCTAGTGCAG	32500 fluorescence intensity (a.u.)
TGGCCAGCTTCACCGCGAAGCGCCACGTGTCTTCCACTCACGGAGTCACCTAGTGCAG	21900 fluorescence intensity (a.u.)
TAGATCAATATCCTCACTTGAGAAACTTGAGGAGTTGGCACGGAGTCACCTAGTGCAG	4030 fluorescence intensity (a.u.)
AGCTAAGACATCGATCGAGGACGCATCACGCATCCATTCCCGGAGTCACCTAGTGCAG	3460 fluorescence intensity (a.u.)
ACTTCCCCGGGTGTACGTCGCTCGGGAACACGCTTGGCCGCGGAGTCACCTAGTGCAG	3420 fluorescence intensity (a.u.)
CGATGAACTCTTGGCGTTTTCTCATGGCATGACGCCACAGCGGAGTCACCTAGTGCAG	3320 fluorescence intensity (a.u.)
AGCCAAGCCCCTCCGCGGCGCGCGCGTTATCCATCTCCCCCGGAGTCACCTAGTGCAG	8510 fluorescence intensity (a.u.)
GGTCACCTCATGCTCGCTCCGTTCACTTCGCTGACAGGTGCGGAGTCACCTAGTGCAG	3790 fluorescence intensity (a.u.)
GCTATCGCCGGTTTCGTCATCAATAATCTTCTCTGCCTCTCGGAGTCACCTAGTGCAG	6100 fluorescence intensity (a.u.)

Sequence	binding signal
TATACAATCGTGTGTTTCTGTGTCGTCATCTGACGTAGTCCGGAGTCACCTAGTGCAG	7450 fluorescence intensity (a.u.)
TTTGCCATATACATTGGTGATGCCCTTAGGTTCAAAAGATCGGAGTCACCTAGTGCAG	5390 fluorescence intensity (a.u.)
TTTTGTTTGTTTTGATGTCGTGTCATGTAGATACTCGTACCGGAGTCACCTAGTGCAG	8270 fluorescence intensity (a.u.)
ACCTGCCACATTTACCAGTCACCACGACGGCAGCATTTCCCGGAGTCACCTAGTGCAG	3960 fluorescence intensity (a.u.)
CATTCATACAATTAGTTTTATTATTAGTCTATGTTTAATACGGAGTCACCTAGTGCAG	15300 fluorescence intensity (a.u.)
AAACTAATTCGCGAGACGAATCTGTTGAGCCTAATTAATCCGGAGTCACCTAGTGCAG	3220 fluorescence intensity (a.u.)
CGGAAACAGATCATCAAACCCATACGTCAGTGATCCAAGTCGGAGTCACCTAGTGCAG	3410 fluorescence intensity (a.u.)
ATTCATATATATATATACACACACACTTACTTTGTATATGCGGAGTCACCTAGTGCAG	3190 fluorescence intensity (a.u.)
CTTATATTCCCATCATCCCATGATATGACATGGCATCGCCCGGAGTCACCTAGTGCAG	10500 fluorescence intensity (a.u.)
GGGGCAAACCCACGATCGAACACCTTGAGTGCAGCCGTCGCGGAGTCACCTAGTGCAG	8880 fluorescence intensity (a.u.)
CGCGCGGGCCTCCTCCGTTGTTGGCGTGGCTTCACACCTGCGGAGTCACCTAGTGCAG	3800 fluorescence intensity (a.u.)
CGCGCCACTGCGTCGTCACCGCCGTGAATCGCTCTTAGGCCGGAGTCACCTAGTGCAG	4360 fluorescence intensity (a.u.)
ACGTGTCGAGTCACACCTGTCTGTTAGGTCCGATCGTATGCGGAGTCACCTAGTGCAG	7880 fluorescence intensity (a.u.)
TTTATGTCTAAACCGCAGCTTACTCATTTTCCTTGTCTATCGGAGTCACCTAGTGCAG	3520 fluorescence intensity (a.u.)
GCGTGGTGCGTATCGTGCTCATCGCATCGGCCTCCGTATACGGAGTCACCTAGTGCAG	40000 fluorescence intensity (a.u.)
CTTCCATCAAAACTTTGATTCTACTGGTTTCTTCCTGAAACGGAGTCACCTAGTGCAG	29200 fluorescence intensity (a.u.)
AAACCATGACATGGCACCCGCAATGACGTGGTAGGCTACTCGGAGTCACCTAGTGCAG	18100 fluorescence intensity (a.u.)
GTCGCCATGGCAACGCCACGTGGGAATGTTCCTCGTCTCGCGGAGTCACCTAGTGCAG	17200 fluorescence intensity (a.u.)
TTGCGTTGTCGATCGGTTCGTCTAATGATGATTGTAAGCCCGGAGTCACCTAGTGCAG	5490 fluorescence intensity (a.u.)
ACGTCCTGTCTCACGCGCGGCCTGCATGACGCCCTCAATGCGGAGTCACCTAGTGCAG	3760 fluorescence intensity (a.u.)
TAGAATGTTGGTCATGGATTGTCAAAATCTCATCTGTTTTCGGAGTCACCTAGTGCAG	3830 fluorescence intensity (a.u.)

Rewritten with each value named: part of the list above
CGCGCGGGCCTCCTCCGTTGTTGGCGTGGCTTCACACCTGCGGAGTCACCTAGTGCAG
  binding signal = 3800 fluorescence intensity (a.u.)
CGCGCCACTGCGTCGTCACCGCCGTGAATCGCTCTTAGGCCGGAGTCACCTAGTGCAG
  binding signal = 4360 fluorescence intensity (a.u.)
ACGTGTCGAGTCACACCTGTCTGTTAGGTCCGATCGTATGCGGAGTCACCTAGTGCAG
  binding signal = 7880 fluorescence intensity (a.u.)
TTTATGTCTAAACCGCAGCTTACTCATTTTCCTTGTCTATCGGAGTCACCTAGTGCAG
  binding signal = 3520 fluorescence intensity (a.u.)
